Data as given in PubChem BioAssay AID1347076 (National Center for Advancing Translational Sciences (NCATS), 2019).
About 13,000 (3.2%) of roughly 400,000 compounds were called active. This list was built around the results that the source calls inconclusive (neither active nor inactive); the mix of calls is not that of the screen. The call rests on the fitted dose curve; in most records, active means well fitted cell-killing curve with a large enough effect; inconclusive means small, poorly fitted or top-dose-only effect, or effect the other way; inactive means flat fitted curve, though single readings scatter. Potencies of inconclusive entries are doubtful fits and often do not repeat.

Assay: qHTS assay for MDR1-selective chemotherapeutics: Primary screen using the drug-selected MDR subline cells KB-V1; further: nearly all actives have a fitted effect of over 60% in size
Settings: KB-V1 MDR cells viability, CellTiter-Glo, 72 h; activity change, negative = cytotoxicity: at 46.1 µM (top of the series)
Method in brief: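 qHTS viability screen in drug-selected KB-V1 MDR cells: 72 h compound treatment at 37 degrees C, ATP luminescence end point.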
On the % scale 0 is the no-effect control and ±100 the full control effect; potency means the concentration at half of the fitted maximal effect.

Row | SMILES | activity change, negative = cytotoxicity | Potency
1 | CCOC(=O)C1CCN(C(c2ccc(C)cc2)c2c(O)cc(C)n(CCOC)c2=O)CC1 (stereo unspecified) | inactive: -11.1% | –
2 | CCOc1ccc(NC(=O)c2ccc(Cn3nc(C)cc3C)o2)cc1 | inactive: -15.1% | –
3 | CC(C)CCOc1ccc(-c2c(=O)n(OCc3ccc([N+](=O)[O-])cc3)c3ccccc3[n+]2[O-])cc1 | – | inconclusive: 20.6 µM [cytotoxic, single point]
4 | CC(=O)/C=C/c1ccc2ccccc2n1 | inactive: 0% | –
5 | COc1ccc(CCNC(=O)CCCn2nc(C)c3sc4ccccc4c3c2=O)c(OC)c1 | inactive: 8.59% | –
6 | Cc1ccc(NC(=O)C2CCC(CNS(=O)(=O)c3cccc4nsnc34)CC2)c(Cl)c1 (stereo unspecified) | inactive: -1.52% | –
7 | CS(=O)(=O)N1CCC(C(=O)Nc2ccc(Oc3ccccc3)cc2)CC1 | – | inconclusive: 18.4 µM [cytotoxic, single point]
8 | Cc1ccc(C(=O)N(CC(=O)NC2CCCC2)Cc2cccs2)s1 | – | active: 5.8 µM
9 | Cc1ccc(NC(=O)C(=O)NCc2ccc(/C=C(/C#N)C(=O)NCc3cccnc3)o2)cc1C | – | inconclusive: 20.6 µM [cytotoxic, single point]
10 | COC(=O)c1c(C)oc2ccc(N(C(=O)c3ccncc3)S(=O)(=O)c3cc(C)ccc3C)cc12 | – | active: 6.51 µM
11 | COc1ccc(NC(=O)COC(=O)c2c3c(nc4ccccc24)CCCC3)cc1 | – | inconclusive: 20.6 µM [cytotoxic, single point]
12 | C=CCNC(=O)c1ccccc1NC(=O)c1ccc(Cl)c(S(=O)(=O)Nc2cccc(C)c2C)c1 | – | active: 2.91 µM
13 | Cc1cccc(N(C)C(=O)Cc2c(C(=O)O)[nH]c3ccccc23)c1 | – | inconclusive: 23.1 µM [cytotoxic, single point]
14 | Cn1c(CCCCCN)nc2ccccc21 | inconclusive: 30.6% | –
15 | CC(=O)c1ccc(NCCC(=O)c2ccccc2)cc1 | inactive: -7.58% | –
16 | Cc1ccc(N(Cc2ccco2)C(=O)c2cccc(S(=O)(=O)N(C)C)c2)cc1 | – | inconclusive: 14.6 µM [cytotoxic, partial curve]
17 | CCCn1cc(S(=O)(=O)c2ccc(Cl)cc2)c(=O)c2cc(OC)ccc21 | – | active: 7.31 µM
18 | CCC1COCCS(=O)(=O)N1Cc1ccc(C)cc1 (stereo unspecified) | – | inactive
19 | O=C(c1ccccc1)N1CCN(CC(O)COC2CCCCC2)CC1 (stereo unspecified) | – | inconclusive: 16.4 µM [cytotoxic, single point]
20 | COc1ccc(CNC(=O)c2cc3sccc3n2Cc2ccc(C)cc2)cc1 | inactive: 17.7% | –
21 | CCNC(=O)c1cc2c(=O)n3cccc(C)c3nc2n(Cc2ccc(C)cc2)c1=N | – | inconclusive: 18.4 µM [cytotoxic, single point]
22 | COc1cc(/C=N/NC(=S)NCC2CCCO2)cc(OC)c1OC (stereo unspecified) | – | inconclusive: 18.4 µM [cytotoxic, single point]
23 | CCOc1cc(C)ccc1OCc1nnc(SCC(=O)c2cccc([N+](=O)[O-])c2)n1C | inactive: -4.23% | –
24 | Nc1nnnn1/N=C/C(Br)=C/c1ccccc1 | – | inconclusive: 29.1 µM [cytotoxic, single point]

Row | SMILES | activity change, negative = cytotoxicity | Potency
25 | O=C(c1ccc(Cl)cc1)N1CCCCC(Sc2nnc(-c3ccc4c(c3)OCO4)o2)C1=O (stereo unspecified) | – | inconclusive: 16.4 µM [cytotoxic, single point]
26 | CCN(CC)S(=O)(=O)c1ccc(Oc2ccc(S(=O)(=O)N(CC)CC)cc2)cc1 | – | active: 2.31 µM
27 | CNc1ccc(-c2cc(OC)ccc2OC)cn1 | inactive: 2.18% | –
28 | Cc1ccc(C=NNc2nc3c([nH]2)c(=O)n(C)c(=O)n3C)cc1 | inactive: 11.9% | –
29 | CN(C)CCn1c2c(c(SCC(=O)NCc3ccccc3)nc1=O)CCCC2 | – | inconclusive: 7.31 µM [rising, partial curve]
30 | CC(C)CSc1nc2ccccc2[nH]1 | – | inconclusive: 16.4 µM [rising, single point]
31 | O=C1/C(=C/c2ccccc2O)SC(=S)N1Cc1cccnc1 | – | inconclusive: 2.91 µM [cytotoxic, partial curve, poor fit]
32 | Cc1ccccc1N(C(=O)CNC(=O)c1ccco1)C(C(=O)NC1CCCCC1)c1cccnc1 (stereo unspecified) | – | inconclusive: 2.31 µM [rising, full curve, poor fit]
33 | O=C(/C=C/c1ccccc1)NC(NC(=S)Nc1cccc(Cl)c1)C(Cl)(Cl)Cl (stereo unspecified) | – | inconclusive: 20.6 µM [cytotoxic, partial curve]
34 | CCCc1nc2ccccc2c(C(=O)OC(C)C(=O)NCc2ccc3c(c2)OCO3)c1CC (stereo unspecified) | – | inconclusive: 29.1 µM [cytotoxic, single point]
35 | CCn1c([N+](=O)[O-])nc2c1c(=O)[nH]c(=O)n2C | – | inconclusive: 23.1 µM [cytotoxic, single point]
36 | CC(C)(C)c1cc(-c2nc(N)nc(N)n2)c(O)c(C(C)(C)C)c1 | – | inconclusive: 29.1 µM [cytotoxic, single point]
37 | COc1ccc(CCNc2ncnc3c2[nH]c2cc(OC)c(OC)cc23)cc1OC | inactive: 0.337% | –
38 | Cc1ccc(S(=O)(=O)Nc2cc(C(=O)NCCN(C)C)ccc2N2CCCCC2)cc1 | – | inconclusive: 10.3 µM [cytotoxic, partial curve]
39 | N#CC1=C(N)NC(SCc2ccccc2)=C(C#N)C12CCCC2 | – | inconclusive: 29.1 µM [cytotoxic, single point]
40 | CCn1c2ccccc2c2nnc(SCC(=O)NC(CC(C)C)C(=O)OC)nc21 (stereo unspecified) | – | active: 5.17 µM
41 | Cc1ccc(C(=O)NC2(C(F)(F)F)N=C(c3ccccc3)N(Cc3ccccc3)C2=O)cc1 (stereo unspecified) | inactive: -17% | –
42 | COC(=O)C1=CN(CC2CCCO2)C=C(C(=O)OC)C1c1ccsc1 (stereo unspecified) | inactive: -11.5% | –
43 | Cc1ccccc1NC(=O)CSc1nc(-c2ccco2)nc2cc(=O)[nH]n12 | – | inconclusive: 6.51 µM [rising, full curve]
44 | CNC[C@H]1OCCCC[C@H](C)Oc2ccc(NC(=O)CCCN(C)C)cc2C(=O)N([C@H](C)CO)C[C@@H]1C | – | inconclusive: 4.61 µM [rising, full curve, poor fit]
45 | CCOC(=O)[C@@H]1[C@H]2COc3ccc(Br)cc3[C@H]2N2C(=O)N(c3ccc(C(F)(F)F)cc3)C(=O)[C@]12C | inactive: 1.33% | –
46 | O=C(NNC(=O)c1cc2ccccc2[nH]1)OCc1ccccc1 | – | inconclusive: 23.1 µM [cytotoxic, single point]
47 | O=c1cc(O)n(C2CCCCCC2)c(=O)[nH]1 | – | inconclusive: 25.9 µM [cytotoxic, partial curve, poor fit]
48 | O=C(COc1ccc(Br)cc1)N1CCN(c2ccc([N+](=O)[O-])c(N3CCCCC3)c2)CC1 | – | inconclusive: 13 µM [cytotoxic, partial curve]

In the list so far, six have an aryl thioether with sulfur outside any ring:
Row | SMILES | activity change, negative = cytotoxicity | Potency
23 | CCOc1cc(C)ccc1OCc1nnc(SCC(=O)c2cccc([N+](=O)[O-])c2)n1C | inactive: -4.23% | –
25 | O=C(c1ccc(Cl)cc1)N1CCCCC(Sc2nnc(-c3ccc4c(c3)OCO4)o2)C1=O (stereo unspecified) | – | inconclusive: 16.4 µM [cytotoxic, single point]
29 | CN(C)CCn1c2c(c(SCC(=O)NCc3ccccc3)nc1=O)CCCC2 | – | inconclusive: 7.31 µM [rising, partial curve]
30 | CC(C)CSc1nc2ccccc2[nH]1 | – | inconclusive: 16.4 µM [rising, single point]
40 | CCn1c2ccccc2c2nnc(SCC(=O)NC(CC(C)C)C(=O)OC)nc21 (stereo unspecified) | – | active: 5.17 µM
43 | Cc1ccccc1NC(=O)CSc1nc(-c2ccco2)nc2cc(=O)[nH]n12 | – | inconclusive: 6.51 µM [rising, full curve]

Laid out differently: 2 of the compounds above.
CCn1c2ccccc2c2nnc(SCC(=O)NC(CC(C)C)C(=O)OC)nc21 (stereo unspecified)
  Potency: active: 5.17 µM
Cc1ccc(C(=O)NC2(C(F)(F)F)N=C(c3ccccc3)N(Cc3ccccc3)C2=O)cc1 (stereo unspecified)
  activity change, negative = cytotoxicity: inactive: -17%

Continued.

Row | SMILES | activity change, negative = cytotoxicity | Potency
49 | CCOc1ccc(-n2c(C)nc3cc(C(=O)NCc4ccc5c(c4)OCO5)ccc32)cc1 | – | active: 13 µM
50 | CCc1cccc(CC)c1NC(=O)CN1C2CCCC1CC(NC(=O)Nc1cccc(OC)c1)C2 (stereo unspecified) | – | active: 20.6 µM
51 | CN(Cc1ccccc1)S(=O)(=O)c1ccc2c(c1)n(C)c(=O)n2C | – | inconclusive: 29.1 µM [cytotoxic, single point]
52 | CCCOC(=O)c1ccc(NC(=O)C2C3C=CC(O3)C2C(=O)O)cc1 (stereo unspecified) | – | inconclusive: 20.6 µM [rising, single point]
53 | COc1ccc(CCNC(=O)c2ccc(CNS(=O)(=O)c3ccc(C(C)(C)C)cc3)cc2)cc1OC | – | inconclusive: 2.91 µM [cytotoxic, full curve, poor fit]
54 | CC1CCN(C(C)C(=O)Nc2ccccc2-c2ccccc2)CC1 (stereo unspecified) | – | inconclusive: 29.1 µM [cytotoxic, single point]
55 | COc1cc(CNC(=O)Nc2nnc([C@@H]3C[C@H](O)[C@@H](CO)O3)s2)cc(OC)c1OC | inactive: -0.146% | –
56 | O=C(NN=C1CCCC1)c1cccc(O)c1 | – | inconclusive: 29.1 µM [rising, single point]
57 | COc1ccc(S(=O)(=O)NC(=O)C2(C)CCN2C(=O)Cc2cccc3ccccc23)cc1 (stereo unspecified) | inactive: 2.92% | –
58 | Cc1cccc(N2C(=NC(=O)c3ccccc3)SC3CS(=O)(=O)CC32)c1 (stereo unspecified) | – | inconclusive: 13 µM [cytotoxic, partial curve, poor fit]
59 | CCC(c1nnnn1CCOC)N1CCN(Cc2ccccc2)CC1 (stereo unspecified) | – | inconclusive: 20.6 µM [cytotoxic, single point]
60 | O=[N+]([O-])c1cc(S(=O)(=O)N2CCCC2)ccc1OCc1ccccc1 | – | inconclusive: 13 µM [cytotoxic, partial curve, poor fit]
61 | Cn1c(=O)cc(SCC(=O)N2CCN(c3ccccc3F)CC2)c2ccc(Cl)cc21 | inactive: -5.31% | –
62 | COCn1c(COc2ccccc2)nc2ccccc21 | – | inconclusive: 20.6 µM [cytotoxic, partial curve]
63 | O=C(c1ccc(F)cc1)N1CCN(S(=O)(=O)c2ccc(Br)cc2)CC1 | inactive: -7.33% | –
64 | Cc1noc2ncnc(Oc3ccc4ccccc4c3)c12 | – | inconclusive: 13 µM [rising, partial curve, poor fit]
65 | CCc1nc2sc3ccccc3c(=O)c2c(=O)n1Cc1ccc(OC)cc1 | – | inconclusive: 6.51 µM [cytotoxic, partial curve]
66 | Cc1ccc(NC(=O)C2CCN(C(=O)c3ccc(Cl)cc3)CC2)nc1 | inactive: -7.58% | –
67 | CCOc1ccccc1OCCCC(=O)N(C)CC(=O)Nc1cc(C)ccc1C | – | inconclusive: 9.2 µM [cytotoxic, partial curve, poor fit]
68 | CCCCCCc1cc2cc(C(=O)Nc3ccccc3)c(=O)oc2cc1O | – | active: 2.31 µM
69 | CCCn1c(SC(C)C(=O)NCC2CCCO2)nc2cc(Cl)ccc2c1=O (stereo unspecified) | – | inconclusive: 2.91 µM [cytotoxic, full curve]
70 | CSc1ccccc1C(=O)OCC(=O)Nc1c(C)n(C)n(-c2ccccc2)c1=O | inactive: 10.4% | –
71 | Cn1c(=O)n(C)c(=O)n(CC(=O)N2CCCCC2)c1=O | inconclusive: -52.6% | –
